Data as given in PubChem BioAssay AID686943 (Drosophila RNAi Screening Center, 2013)

Test: 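Fly genes whose loss alters ERK activation after insulin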 (primary screen)
System: Drosophila S2R+ haemocyte-like cells expressing YFP-tagged ERK (Rolled)
Reagents: long dsRNA against Drosophila genes
Conditions: insulin stimulation versus unstimulated cells; dose and duration not given
Measured: 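Antibody staining for doubly phosphorylated ERK divided by ERK-YFP signal, as plate z-scores, in insulin-treated and untreated cells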
Direction: replicate 1, z-score of dpERK with insulin and replicate 2, z-score of dpERK with insulin: higher = more active ERK per ERK-YFP after insulin; replicate 1, z-score of dpERK under basal conditions: higher = more basal active ERK per ERK-YFP; replicate 1, z-score of ERK-YFP with insulin: higher = more YFP-tagged ERK signal
The deposit covers about 23,000 reagents; below is a random part of those with a known target gene and a result. 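Extra replicates exist only for a retested subset of genes; insulin dose and duration not given; both raised and lowered dpERK matter.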 The numbers tell different reagents against one gene apart. Names joined by + are all predicted targets of the reagent. Not stated in the record: the amount of reagent, the time to read-out.

| Target gene | reagent no. | replicate 1, z-score of dpERK with insulin | replicate 2, z-score of dpERK with insulin | replicate 1, z-score of dpERK under basal conditions | replicate 1, z-score of ERK-YFP with insulin |
| --- | --- | --- | --- | --- | --- |
| CG31482 | 1 | -0.3 | 0.18 | 0.18 | 0.33 |
| CG5953 | 1 | -0.02 | -0.39 | 0.42 | 1.82 |
| CG5953 | 2 | -2.05 | -3.42 | -1.91 | 1.03 |
| CG13376 | 1 | 1.67 | -0.38 | 0.81 | -0.27 |
| kmg | 1 | 0.22 | 0.38 | -0.23 | 0.11 |
| Alp2 | 1 | -2.72 | 0.19 | 0.69 | 1.67 |
| t-cup | 1 | 0.87 | 2.44 | 1.19 | -0.35 |
| CG18568 | 1 | 0.11 | -0.03 | 0.23 | 0.14 |
| Hsp70Bb + Hsp70Ba + Hsp70Bc + 1 more | 1 | -2.39 | -2.22 | -0.83 | -1.17 |
| Hsp70Bb + Hsp70Ba + Hsp70Bc + 1 more | 2 | -1.98 | -1.93 | -1.05 | -1.48 |
| CG32772 | 1 | -5.25 | 1.24 | 0.74 | -3.08 |
| CG32772 | 2 | 0.59 | 0.97 | -0.07 | 0.03 |
| CG32772 | 3 | -0.03 | 0.3 | -0.5 | -0.94 |
| Prp39 | 1 | -0.79 | 2.38 | -0.27 | 0.66 |
| Inx7 | 1 | 0.61 | -0.2 | 0.47 | 0.34 |
| wnd | 1 | 0.88 | 0.12 | -0.73 | -0.19 |
| wnd | 2 | -0.53 | -0.2 | 1.97 | 0.23 |
| wnd | 3 | 0.21 | -0.26 | 1 | -1.14 |
| PCNA | 1 | -0.72 | 0.18 | -2.39 | -3.21 |
| Cdep | 1 | -1.53 | -1.28 | -0.96 | -0.53 |
| Cdep | 2 | -1.13 | -1.04 | -1.7 | 0.68 |
| Cdep | 3 | 0.44 | -0.38 | -1.06 | 0.18 |
| pic | 1 | -2.24 | -2.04 | -1.39 | 3.34 |
| B9d1 | 1 | 0.9 | -0.59 | -0.84 | -0.26 |
| Orai | 1 | 0.74 | 0.66 | -0.15 | -1.4 |
| Orai | 2 | 1 | 0.75 | 0.53 | -1.01 |
| CG5515 | 1 | 0.32 | -0.24 | 0.29 | 0.97 |
| CG2126 | 1 | 1.93 | -1.82 | -0.07 | -0.12 |
| CG13309 | 1 | -0.49 | 0.11 | 1.09 | -0.8 |
| CG7560 | 1 | 0.14 | 0.05 | -1.03 | 0.12 |
| CG9616 | 1 | -0.29 | -1.64 | 0.15 | -0.14 |
| CG5267 | 1 | -0.61 | 0.2 | 0.05 | 0.33 |
| Vha16-5 | 1 | 0.86 | 0.56 | 0.75 | -0.89 |
| CG12502 | 1 | 0.33 | 0.48 | 2.12 | 2.14 |
| CG11865 | 1 | -0.3 | 0.33 | 1.01 | -0.02 |
| Pisd | 1 | 0.95 | 6.74 | -0.94 | -0.56 |
| CG15111 | 1 | -0.1 | 0.56 | -0.28 | 0.89 |
| SerRS | 1 | -0.02 | 0.1 | 0.04 | 1.25 |
| CG1246 | 1 | -0.03 | -0.17 | 1.71 | 0.61 |
